Results are given in words; binding and its absence hold for the method and conditions named. In cells and extracts the contact can be indirect. Some binding calls cover weakened binding; strength is not graded here.

Sequences of proteins named here, by UniProt entry; tags and fusion partners are left off. A change or cut given only in a name is not applied to a line headed by its entry.
UniProt Q79NI3: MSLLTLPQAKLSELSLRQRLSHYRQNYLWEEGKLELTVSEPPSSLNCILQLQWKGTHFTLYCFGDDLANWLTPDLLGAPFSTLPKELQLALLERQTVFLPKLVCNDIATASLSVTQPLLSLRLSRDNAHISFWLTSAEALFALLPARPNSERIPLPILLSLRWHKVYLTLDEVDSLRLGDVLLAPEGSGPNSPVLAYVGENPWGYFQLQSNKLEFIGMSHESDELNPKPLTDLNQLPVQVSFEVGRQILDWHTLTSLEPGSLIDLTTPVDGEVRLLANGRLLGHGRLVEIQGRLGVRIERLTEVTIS

The assay concerns the target Halo-YscQ (Yersinia enterocolitica) (UniProt Q79NI3). The assay is described as follows: pull-down; Halo-YscQ bound to Magne HaloTag beads from Y. enterocolitica lysate (strains with and without YscN); eluate probed by immunoblot with a polyclonal anti-YscQ antibody. On the technique in general: A western blot detects proteins with antibodies after separation by electrophoresis.

Turning to “YscQC (from UniProt Q79NI3 218-307) (domain or fragment)”, the binding entry is on record as “binds”.

The values are drawn from PMC5490264 (Nature Communications, 2017).
